Paper PMC7726267
These are yes or no findings as the source states them, for the method shown. Binding seen in cells or lysates may run through a third protein. Some results given as binding are weak or reduced against the parent protein; the word gives no strength. Blank lines part the entries; values can stand above or below the molecule they belong to.

Amino acid sequences for entries named in this document (tags omitted). A change or cut given only in a name is not applied to a line headed by its entry. Residues count along the entry.
UniProt Q03692, residues 19-680: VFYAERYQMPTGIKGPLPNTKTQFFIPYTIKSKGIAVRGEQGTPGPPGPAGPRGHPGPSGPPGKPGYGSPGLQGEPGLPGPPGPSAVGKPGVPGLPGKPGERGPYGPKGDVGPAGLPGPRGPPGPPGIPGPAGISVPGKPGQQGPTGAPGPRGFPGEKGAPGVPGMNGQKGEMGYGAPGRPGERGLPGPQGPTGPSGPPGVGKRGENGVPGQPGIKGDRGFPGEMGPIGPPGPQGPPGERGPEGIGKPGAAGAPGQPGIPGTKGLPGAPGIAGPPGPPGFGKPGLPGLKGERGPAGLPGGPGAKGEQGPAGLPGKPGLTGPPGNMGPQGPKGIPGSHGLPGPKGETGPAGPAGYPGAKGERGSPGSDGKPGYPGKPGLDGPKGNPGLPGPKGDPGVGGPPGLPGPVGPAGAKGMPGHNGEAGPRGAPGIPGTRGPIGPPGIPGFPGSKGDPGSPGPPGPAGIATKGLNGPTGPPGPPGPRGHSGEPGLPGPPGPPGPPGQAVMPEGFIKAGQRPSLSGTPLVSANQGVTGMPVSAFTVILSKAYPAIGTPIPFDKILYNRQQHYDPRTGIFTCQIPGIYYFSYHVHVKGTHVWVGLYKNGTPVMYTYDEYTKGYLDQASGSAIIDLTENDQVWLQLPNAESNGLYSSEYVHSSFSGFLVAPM
UniProt P05556: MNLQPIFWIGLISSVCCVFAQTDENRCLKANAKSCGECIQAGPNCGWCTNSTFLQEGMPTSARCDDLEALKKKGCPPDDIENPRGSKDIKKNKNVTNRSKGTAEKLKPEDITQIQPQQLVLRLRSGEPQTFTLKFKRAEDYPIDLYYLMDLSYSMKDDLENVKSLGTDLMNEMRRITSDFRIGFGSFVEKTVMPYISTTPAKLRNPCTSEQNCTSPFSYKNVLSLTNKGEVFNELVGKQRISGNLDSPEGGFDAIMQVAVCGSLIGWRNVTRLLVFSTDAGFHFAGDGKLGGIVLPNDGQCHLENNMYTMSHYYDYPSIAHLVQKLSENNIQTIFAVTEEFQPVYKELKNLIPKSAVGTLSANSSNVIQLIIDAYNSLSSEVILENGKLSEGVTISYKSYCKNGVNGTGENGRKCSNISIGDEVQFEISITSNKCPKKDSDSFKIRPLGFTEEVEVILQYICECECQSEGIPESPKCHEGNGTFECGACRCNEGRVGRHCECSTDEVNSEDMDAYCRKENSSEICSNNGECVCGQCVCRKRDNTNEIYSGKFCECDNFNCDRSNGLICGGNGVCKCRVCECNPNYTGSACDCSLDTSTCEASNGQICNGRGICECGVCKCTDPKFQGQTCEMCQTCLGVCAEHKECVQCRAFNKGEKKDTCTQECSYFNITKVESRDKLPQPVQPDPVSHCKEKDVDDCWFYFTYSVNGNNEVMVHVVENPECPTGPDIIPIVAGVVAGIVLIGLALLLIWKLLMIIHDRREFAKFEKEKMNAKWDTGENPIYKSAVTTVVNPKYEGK

Molecular target: Collagen type X alpha 1 (COL10A1) (human (endogenous in H1299)) (UniProt Q03692)
Assay: co-IP; H1299 cell lysate in co-IP buffer (20 mM Tris-Cl pH 7.5, 150 mM NaCl, 1 mM EDTA, 0.5% NP-40, 5 μg/ml aprotinin); 5 μg anti-collagen X antibody (ab58632) and protein A-Sepharose, 4°C, 4 h; bound protein detected by western blot

binding: no binding
Molecule: integrin β1 (from UniProt P05556 21-798) (receptor)

binding: binds
B1: Discoidin domain receptor tyrosine kinase 2 (DDR2) (receptor, UniProt Q16832 22-855)
chain: KAQVNPAICRYPLGMSGGQIPDEDITASSQWSESTAAKYGRLDSEEGDGAWCPEIPVEPDDLKEFLQIDLHTLHFITLVGTQGRHAGGHGIEFAPMYKINYSRDGTRWISWRNRHGKQVLDGNSNPYDIFLKDLEPPIVARFVRFIPVTDHSMNVCMRVELYGCVWLDGLVSYNAPAGQQFVLPGGSIIYLNDSVYDGAVGYSMTEGLGQLTDGVSGLDDFTQTHEYHVWPGYDYVGWRNESATNGYIEIMFEFDRIRNFTTMKVHCNNMFAKGVKIFKEVQCYFRSEASEWEPNAISFPLVLDDVNPSARFVTVPLHHRMASAIKCQYHFADTWMMFSEITFQSDAAMYNNSEALPTSPMAPTTYDPMLKVDDSNTRILIGCLVAIIFILLAIIVIILWRQFWQKMLEKASRRMLDDEMTVSLSLPSDSSMFNNNRSSSPSEQGSNSTYDRIFPLRPDYQEPSRLIRKLPEFAPGEEESGCSGVVKPVQPSGPEGVPHYAEADIVNLQGVTGGNTYSVPAVTMDLLSGKDVAVEEFPRKLLTFKEKLGEGQFGEVHLCEVEGMEKFKDKDFALDVSANQPVLVAVKMLRADANKNARNDFLKEIKIMSRLKDPNIIHLLAVCITDDPLCMITEYMENGDLNQFLSRHEPPNSSSSDVRTVSYTNLKFMATQIASGMKYLSSLNFVHRDLATRNCLVGKNYTIKIADFGMSRNLYSGDYYRIQGRAVLPIRWMSWESILLGKFTTASDVWAFGVTLWETFTFCQEQPYSQLSDEQVIENTGEFFRDQGRQTYLPQPAICPDSVYKLMLSCWRRDTKNRPSFQEIHLLLLQQGDE
